# Results: the supplement of paper PMC6411743
# ± gives the standard deviation of the averaged measurements. The list shows a part of the results.
# Experiments:
# Assay in all cases: NP40-soluble protein abundance relative to vehicle (solubility fold change) (ratio); higher = more soluble protein in presence of GTP
# [1] = target: T1, UniProt Q15813 and related entries
# T1 sequence (whole entry): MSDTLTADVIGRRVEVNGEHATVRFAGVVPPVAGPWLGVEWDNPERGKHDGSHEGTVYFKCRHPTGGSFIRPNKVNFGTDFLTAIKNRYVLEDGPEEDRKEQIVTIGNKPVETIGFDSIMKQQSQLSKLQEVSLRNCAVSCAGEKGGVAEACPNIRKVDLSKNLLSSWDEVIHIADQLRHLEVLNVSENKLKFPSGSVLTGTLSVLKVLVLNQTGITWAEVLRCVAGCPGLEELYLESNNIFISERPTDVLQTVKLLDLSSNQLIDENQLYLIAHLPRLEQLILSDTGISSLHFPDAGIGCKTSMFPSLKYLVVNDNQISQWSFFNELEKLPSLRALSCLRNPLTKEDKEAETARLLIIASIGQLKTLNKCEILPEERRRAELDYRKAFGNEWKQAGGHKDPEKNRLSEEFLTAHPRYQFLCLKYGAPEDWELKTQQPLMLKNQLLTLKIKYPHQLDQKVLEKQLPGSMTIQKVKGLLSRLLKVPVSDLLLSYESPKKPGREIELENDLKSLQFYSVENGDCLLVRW
# Method in brief: (§1)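 Jurkat crude lysate prepared with a Dounce homogeniser was treated at eight concentrations spanning 0.1 to 10 mM, 10 min at room temperature then 3 min at 37 °C. Solubilisation with 0.8% NP40 and benzonase and ultracentrifugation preceded TMT labelling of the supernatant for LC-MS/MS. Fold change against the detergent-processed vehicle was determined per replicate from vsn-normalised intensities, across three independent experiments.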
# [2] = target: T2, UniProt Q16134 and related entries
# T2 sequence (whole entry): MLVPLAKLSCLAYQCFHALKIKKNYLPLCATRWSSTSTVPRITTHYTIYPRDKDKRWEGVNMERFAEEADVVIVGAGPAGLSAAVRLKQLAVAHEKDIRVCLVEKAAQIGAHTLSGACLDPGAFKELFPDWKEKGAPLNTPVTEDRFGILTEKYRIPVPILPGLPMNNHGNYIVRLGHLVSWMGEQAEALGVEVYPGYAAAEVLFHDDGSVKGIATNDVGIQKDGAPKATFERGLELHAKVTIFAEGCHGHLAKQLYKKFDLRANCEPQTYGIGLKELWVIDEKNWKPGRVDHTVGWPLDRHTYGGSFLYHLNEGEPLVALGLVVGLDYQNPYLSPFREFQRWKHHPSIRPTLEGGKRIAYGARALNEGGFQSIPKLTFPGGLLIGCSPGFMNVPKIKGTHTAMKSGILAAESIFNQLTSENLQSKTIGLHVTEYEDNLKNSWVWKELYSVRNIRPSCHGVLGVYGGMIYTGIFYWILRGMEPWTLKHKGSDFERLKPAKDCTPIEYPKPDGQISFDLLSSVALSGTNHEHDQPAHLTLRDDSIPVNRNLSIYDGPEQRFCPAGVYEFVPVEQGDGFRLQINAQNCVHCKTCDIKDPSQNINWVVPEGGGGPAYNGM
# Method in brief: as §1
# UniProt Q16514-2|Q16514 = target: T3, UniProt Q16514-2|Q16514
# T3 sequence (whole entry): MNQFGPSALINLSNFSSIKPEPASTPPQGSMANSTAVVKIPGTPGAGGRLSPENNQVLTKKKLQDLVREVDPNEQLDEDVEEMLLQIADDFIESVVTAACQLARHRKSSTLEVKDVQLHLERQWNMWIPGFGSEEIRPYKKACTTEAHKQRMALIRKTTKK
# Method in brief: as §1
# [3] = target: T4, UniProt Q5T1V6 and related entries
# T4 sequence (whole entry): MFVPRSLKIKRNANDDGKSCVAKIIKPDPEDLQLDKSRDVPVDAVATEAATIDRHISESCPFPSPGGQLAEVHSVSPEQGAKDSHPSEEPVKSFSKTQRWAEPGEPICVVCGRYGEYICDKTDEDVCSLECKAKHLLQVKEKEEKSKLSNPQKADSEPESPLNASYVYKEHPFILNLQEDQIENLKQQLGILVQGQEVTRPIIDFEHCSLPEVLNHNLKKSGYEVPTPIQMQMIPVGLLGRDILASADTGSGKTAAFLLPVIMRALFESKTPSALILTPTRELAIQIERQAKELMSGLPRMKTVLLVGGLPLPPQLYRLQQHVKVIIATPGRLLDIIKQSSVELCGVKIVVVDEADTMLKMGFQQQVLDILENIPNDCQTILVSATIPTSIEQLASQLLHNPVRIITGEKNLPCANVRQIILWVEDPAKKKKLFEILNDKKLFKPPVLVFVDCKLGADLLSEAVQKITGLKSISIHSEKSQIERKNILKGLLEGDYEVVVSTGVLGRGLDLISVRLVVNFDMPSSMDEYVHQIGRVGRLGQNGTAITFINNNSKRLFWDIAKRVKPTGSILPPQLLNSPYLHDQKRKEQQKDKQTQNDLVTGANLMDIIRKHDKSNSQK
# Method in brief: as §1
compound,measurement,setting,value
Nc1nc2c(ncn2[C@@H]2O[C@H](COP(=O)(O)OP(=O)(O)OP(=O)(O)O)[C@@H](O)[C@H]2O)c(=O)[nH]1 [guanosine triphosphate],NP40-soluble protein abundance,[1]; concentration: 4mM,0.903 ± 0.022
same,NP40-soluble protein abundance,[1]; concentration: 6mM,0.886 ± 0.035
same,NP40-soluble protein abundance,[1]; concentration: 8mM,0.874 ± 0.058
same,NP40-soluble protein abundance,[1]; concentration: 10mM,0.858 ± 0.072
same,NP40-soluble protein abundance,[2]; concentration: 0.1mM,1.03 ± 0.04
same,NP40-soluble protein abundance,[2]; concentration: 0.5mM,1.022 ± 0.0076
same,NP40-soluble protein abundance,[2]; concentration: 1mM,0.9438 ± 0.006
same,NP40-soluble protein abundance,[2]; concentration: 2mM,0.944 ± 0.038
same,NP40-soluble protein abundance,[2]; concentration: 4mM,0.916 ± 0.033
same,NP40-soluble protein abundance,[2]; concentration: 6mM,0.923 ± 0.026
same,NP40-soluble protein abundance,[2]; concentration: 8mM,0.896 ± 0.036
same,NP40-soluble protein abundance,[2]; concentration: 10mM,0.865 ± 0.07
same,NP40-soluble protein abundance,UniProt Q16514-2|Q16514; concentration: 0.1mM,1.02 ± 0.031
same,NP40-soluble protein abundance,UniProt Q16514-2|Q16514; concentration: 0.5mM,1.08 ± 0.014
same,NP40-soluble protein abundance,UniProt Q16514-2|Q16514; concentration: 1mM,1.19 ± 0.1
same,NP40-soluble protein abundance,UniProt Q16514-2|Q16514; concentration: 2mM,1.19 ± 0.055
same,NP40-soluble protein abundance,UniProt Q16514-2|Q16514; concentration: 4mM,1.21 ± 0.073
same,NP40-soluble protein abundance,UniProt Q16514-2|Q16514; concentration: 6mM,1.21 ± 0.13
same,NP40-soluble protein abundance,UniProt Q16514-2|Q16514; concentration: 8mM,1.27 ± 0.16
same,NP40-soluble protein abundance,UniProt Q16514-2|Q16514; concentration: 10mM,1.37 ± 0.17
same,NP40-soluble protein abundance,[3]; concentration: 0.1mM,1.02 ± 0.05
same,NP40-soluble protein abundance,[3]; concentration: 0.5mM,1.03 ± 0.032
same,NP40-soluble protein abundance,[3]; concentration: 1mM,0.964 ± 0.05
same,NP40-soluble protein abundance,[3]; concentration: 2mM,0.985 ± 0.026
same,NP40-soluble protein abundance,[3]; concentration: 4mM,0.969 ± 0.043
same,NP40-soluble protein abundance,[3]; concentration: 6mM,0.959 ± 0.025
same,NP40-soluble protein abundance,[3]; concentration: 8mM,0.92 ± 0.057
same,NP40-soluble protein abundance,[3]; concentration: 10mM,0.901 ± 0.043

# Shown as tab-separated lines: part of the list above.
compound	measurement	setting	value
Nc1nc2c(ncn2[C@@H]2O[C@H](COP(=O)(O)OP(=O)(O)OP(=O)(O)O)[C@@H](O)[C@H]2O)c(=O)[nH]1 [guanosine triphosphate]	NP40-soluble protein abundance	[2]; concentration: 2mM	0.944 ± 0.038
same	NP40-soluble protein abundance	UniProt Q16514-2|Q16514; concentration: 2mM	1.19 ± 0.055
